Assay results taken from PubChem BioAssay AID493014 (National Center for Advancing Translational Sciences (NCATS), 2011).
Hit rate of the full screen: of about 340,000 compounds, about 170 (0.05%) were called active. The shares of active, inactive and inconclusive entries below differ from those in the screen. Calls follow the shape of the dose curve; as a rule, active = well fitted inhibition curve with a large enough effect in the signal ratio, with a control signal flat (not every such curve was filed as active); inconclusive = small, poorly fitted or top-dose-only effect, or effect the other way, or a change in a side signal; inactive = flat fitted curve, though single readings scatter; the % refers to the signal ratio. Potencies beside an inconclusive call are fits to weak or partial responses and may not hold up.

test: qHTS Assay to Find Inhibitors of Chronic Active B-Cell Receptor Signaling; conditions: ABC-DLBCL IkBa-CBG/CBR reporter, luminescence ratio (green luciferase fused to IkBa over red control in TMD8 lymphoma cells), 4 h; activity change, negative = inhibition: at 46.1 µM (top of the series) unless noted;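 as to activity change, negative = inhibition: plate controls were basal doxycycline-induced cells for no effect and cells given 10 µM MG132 for full effect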
Summary of the method: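 Cell line TMD8 (human ABC DLBCL), stably expressing tet-inducible CBG68-IkBa fusion and CBR; IMDM/0.5% FBS; cpd up to 46 uM; dox induction, 4 h, 37C/5% CO2; dual luminescence; green/red ratio; MG132 control.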
Potency is read from the fitted curve at half-maximal effect.

Compound	activity change, negative = inhibition	Potency
Clc1ccc(CCNc2ncnc3nc[nH]c23)cc1	inconclusive: -7.19%	
N/C(=N\OC(=O)Cc1ccccc1)c1cccnc1	inconclusive: 5.48%	
Cc1cc(N(C)N)nc(NC(=O)NS(=O)(=O)c2ccccc2Cl)n1	inactive	
OC(COCC1COc2ccccc2O1)CN1CCc2ccccc2C1 (stereo unspecified)	inactive	
O=C(CSc1ccc2ccccc2c1)Nc1nc2ccccc2[nH]1	inconclusive: -0.553%	
COc1cccc2[nH]c3c(=O)n(CCCN4CCOCC4)cnc3c12	inconclusive: -1.57%	
O=C(NCC(c1ccc(F)cc1)N1CCOCC1)c1ccc(OCc2ccccc2)cc1 (stereo unspecified)		inconclusive: 20.6 µM [falling, single point]
COc1ccc(-n2cnc3sc(-c4ccccc4)cc3c2=O)cc1	inconclusive: 10.2%	
COc1cccc(NC(=O)COc2ncnc3sc(C)c(C)c23)c1		inconclusive: 29.1 µM [falling, single point]
Cc1cccn2c(=O)c(/C=C(\C#N)C(=O)NCc3ccco3)c(N3CCCC(C)C3)nc12 (stereo unspecified)		inconclusive: 25.9 µM [rising, partial curve, poor fit]
CCN(CC)C(=O)COc1cc(C)cc2oc(=O)cc(-c3ccccc3)c12	inconclusive: 12.5%	
COCc1cc(C)nc2sc(C(=O)NCCO)c(-n3cccc3)c12		inconclusive: 12.6 µM [falling, partial curve, poor fit]
CCc1noc(C)c1C(=O)Nc1nnc(C2CCCCC2)s1	inactive	
O=C(Nc1ccc(NC(=O)c2ccco2)nc1)c1cccnc1		inconclusive: 6.51 µM [falling, single point]
Cc1nc2ccccc2c(=O)n1-c1cccc(NS(=O)(=O)c2ccccc2)c1	inconclusive: 2.9%	
CC(CC1C(C#N)=C(N)OC2=C1C(=O)CCC2)c1ccccc1 (stereo unspecified)	inconclusive: 5.04%	
O=[N+]([O-])c1ccc(N2CCN(C(=S)Nc3ccccc3)CC2)cc1	inactive	
CC(=O)Nc1sc(N/N=C/c2ccc(O)cc2)nc1-c1ccc(C)cc1	inconclusive: 17.1%	
N/C(=N\OC(=O)Cc1ccccc1)c1ccccc1Cl	inconclusive: 3.84%	
CC(Oc1ccc(F)cc1)c1ccnc2nc(/N=C/N(C)C)nn12 (stereo unspecified)	inactive	
CC1(C)Cc2c(c(N3CCOCC3)nc3sc(C(=O)Nc4cccc(Cl)c4)c(N)c23)CO1	inactive	

A draw from above in order of formula weight, ascending.
Compound	activity change, negative = inhibition	Potency
COc1ccc(-n2cnc3sc(-c4ccccc4)cc3c2=O)cc1	inconclusive: 10.2%	
COc1cccc(NC(=O)COc2ncnc3sc(C)c(C)c23)c1		inconclusive: 29.1 µM [falling, single point]
CC(=O)Nc1sc(N/N=C/c2ccc(O)cc2)nc1-c1ccc(C)cc1	inconclusive: 17.1%	

The list continues.

Compound	activity change, negative = inhibition	Potency
COc1ccccc1C(=O)NC(=O)COC(=O)C1CCC1	inconclusive: 6.93%	
COc1ccc(NC(=O)CC23CC4CC(C2)CC(n2nnc(C)n2)(C4)C3)cc1	inactive	
CC(C)n1cc(CNC(=O)C2CCC(=O)N(Cc3ccccc3F)C2)cn1 (stereo unspecified)	inactive	
Cc1ccnc(NC(=O)c2c(-c3ccccc3Cl)noc2C)c1	inactive	
Cc1ccc(-c2nc3scc(CCNS(=O)(=O)c4ccc(C)c(C)c4)n3n2)cc1	inactive	
O=C(CSc1nc2c(c(=O)n1-c1ccccc1)SCC2)NCC1CCCO1 (stereo unspecified)	inconclusive: 7.34%	
CC(=O)c1c(C)[nH]c(C(=O)OCC(=O)c2ccc3c(c2)NC(=O)CO3)c1C	inconclusive: -0.681%	
O=C(Nc1ccc(-c2nc3ccc(NC(=O)c4cccs4)cc3[nH]2)cc1)c1cccs1		inconclusive: 8.2 µM [rising, partial curve]
Cc1cccc(-n2nnc(C(=O)NCc3ccccn3)c2N)c1		inconclusive: 16.4 µM [falling, partial curve, poor fit]
COc1ccc(C2CC(c3cccs3)=NN2C(=O)CSc2nc3ccccc3s2)cc1 (stereo unspecified)	inactive	
CCOc1ccc(/C=C/C(=O)CCC(=O)O)cc1	inactive	
Cn1c(N)c(N2CCCCC2)c(=O)n(CC(=O)Nc2ccc(Cl)c(Cl)c2)c1=O	inactive	
O=C(CSc1ncnc2nc[nH]c12)c1ccccc1		inconclusive: 20.6 µM [falling, single point]
O=C(Nc1ccc(F)cc1)c1ccc(-n2cnnc2)cc1		inconclusive: 35.5 µM [falling, single point]
Cc1ccc(NC(=O)CN2CCCC2c2cccn2C)cc1C (stereo unspecified)	inconclusive: -12.5%	
CCC(CC)NC(=O)COC(=O)c1ccc(OCc2ccc(C(C)=O)cc2OC)c(OC)c1	inconclusive: 0.697%	
Cc1ccc(-c2cn3cccnc3n2)cc1NC(=O)c1ccc(Br)o1	inconclusive: -0.743%	
CC(=O)COC(=O)C1=NN(c2ccccc2)C(=O)CC1	inconclusive: 2.09%	
C=CCSc1ncnc2c1oc1nc3c(cc12)COC(C)(C)C3	inconclusive: -3.81%	
COC(=O)c1ccc(CSc2nc3c(cnn3-c3ccccc3)c(=O)[nH]2)o1	inconclusive: 1.24%	
C=CCn1c(=O)c2c(nc(Br)n2Cc2ccccc2Cl)n(C)c1=O	inactive	

Compound	activity change, negative = inhibition	Potency
O=C(Cc1cccs1)Nc1nnc(Cc2ccc(F)cc2)s1		inconclusive: 2.31 µM [rising, full curve, poor fit]
O=C(O)c1ccccc1-c1cn2cc(Cl)ccc2n1		inconclusive: 22.4 µM [falling, partial curve]
CCN(CC)C(=O)[C@H]1C[C@H](CC(=O)NC(C)(C)C)C(=O)N2CCc3c([nH]c4cc(-c5ccco5)ccc34)[C@]12C	inactive	
CCOC(=O)N1CCN(C(=O)CCl)CC1		inconclusive: 25.1 µM [falling, single point]
Cc1ccnc(NC(=S)NC(=O)/C=C/c2ccco2)c1		inconclusive: 25.9 µM [falling, partial curve]
O=C(NCc1ccc(Cl)cc1)c1ccccc1Oc1ccccc1	inconclusive: 0.347%	
COC(=O)CCC(=O)OC	inactive	
Clc1c(-c2ccccc2)nnn1-c1ccccc1	inconclusive: -12%	
Cc1ccc(/C=C/C(=O)Nc2nnc(C)s2)o1	inconclusive: 4.82%	
Cc1cc(C)nc(SCC(=O)c2ccc(F)c(C)c2)n1	inconclusive: 2%	
COc1cccc2cc(C(=O)N3CCCCC3C)c(=O)oc12 (stereo unspecified)	inconclusive: 8.96%	
O=C(CSc1ccccc1)Nc1ccc(N2CCOCC2)cc1	inconclusive: 9.28%	
Cc1cc(C)c(N)c(C(=O)O)c1	inconclusive: 0.718%	
CC(C)/C=N/Nc1nc2c(c(=O)n(C)c(=O)n2C)n1C	inconclusive: 13.7%	
COC(=O)N/N=C/c1cccc(OCCSc2ccc(Cl)cc2)c1	inconclusive: -17.3%	
CC12CNCC(C)(CN(C3(O)C(=O)Nc4ccc(Br)cc43)C1)C2=O (stereo unspecified)		inconclusive: 35.5 µM [falling, single point]
O=C(Nc1ccc2c(c1)CCC2)Nc1ccccc1F		inconclusive: 20 µM [falling, partial curve]
O=C(NC1CCN(Cc2ccccc2)CC1)c1ccc2c(c1)OCCCO2	inconclusive: 3.94%	
O=C(NC1CCCCC1)c1ccc2snnc2c1		inconclusive: 35.5 µM [falling, single point]
COC(=O)c1cc(NC(=O)COC(=O)CCc2nc3ccccc3c(=O)[nH]2)cc(C(=O)OC)c1	inconclusive: 1.92%	
O=C(NCC1CCCO1)c1cccc(Oc2ccc([N+](=O)[O-])cc2Cl)c1 (stereo unspecified)	inconclusive: -23.9%	

Compound	activity change, negative = inhibition	Potency
COc1cccc(-c2ncc3ccccc3c2COC(=O)c2cccs2)c1		inconclusive: 8.2 µM [falling, partial curve]
CCOC(=O)CC(NC(=O)c1ccco1)c1ccc(C)cc1 (stereo unspecified)	inconclusive: 2.09%	
O=C(CNC(=O)c1cccs1)c1ccc(Cl)cc1		inconclusive: 35.5 µM [falling, partial curve]
C#CCOCCOCCOCCNc1nc(N2CCN(C(=O)CCCCCCCCCCNC(=O)[C@@H](CCC(=O)O)n3cc(CCCCCN)nn3)CC2)nc(N2CCN(C(=O)CCCCCCCCCCNC(=O)[C@H](CO)n3cc(CCCSC)nn3)CC2)n1	inconclusive: 2.99%	
Cn1c(=O)n(C)c2cc(NS(=O)(=O)c3ccc4c(c3)CCCC4)ccc21	inconclusive: -23.5%	
O=C(c1cccc(Br)c1)c1conc1C(=O)c1ccco1	inconclusive: 4.58%	
COc1cccc2oc3ccc(C#CC4(N)CCCCC4)cc3c(=O)c12		inconclusive: 6.31 µM [rising, partial curve]
COc1ccc(NC(=O)Nc2ccc3c(c2)C(=O)N([C@H](C)CO)C[C@H](C)[C@@H](CN(C)S(=O)(=O)c2ccc(F)cc2)O3)cc1	inactive	
CCOC(=O)c1ccc(NC(=O)CN2CCN(c3ccccc3)CC2)cc1	inconclusive: 0.266%	
COc1ccc2cc(S(=O)(=O)N3CCCC3)ccc2c1	inconclusive: 14.6%	
COc1ccc(OC)c(-c2cc(C(=O)NCCCn3ccnc3)no2)c1		inconclusive: 8.91 µM [falling, partial curve, poor fit]
O=C1NC(=O)C(c2ccccc2[N+](=O)[O-])=C1Nc1ccc(O)c(Cl)c1		inconclusive: 35.5 µM [rising, single point]
COc1ccccc1CNC(=O)c1cccc(S(=O)(=O)N2CCCC2)c1	inactive	
O=C(/C=C/c1ccco1)Nc1scc(-c2ccccc2)c1C(=O)O		inconclusive: 31.6 µM [rising, single point]
CC(C)(C)C(=O)Nc1ccc(S(=O)(=O)Nc2nccs2)cc1	inconclusive: 5.74%	
CCOC(=O)/C=c1\s/c(=C\c2ccc(C(F)(F)F)cc2)c(=O)n1CC(=O)NCc1ccco1	inactive	
CCC[N+](CC#Cc1ccccc1)(CCC)CC(=O)OCC	inactive	
COc1cccc(NC(=O)CSc2nc(C3CC3)nc3ccccc23)c1		inconclusive: 2.24 µM [falling, full curve]
